Measured values taken from patent US12359121B2, “Neutral fluorescent mitochondrial marker as amide derivative, and preparation method and use thereof” (SOOCHOW UNIVERSITY, priority 2021, dated 2025).

Tested on: HeLa cells
Experiment: Photobleaching study in living cells
Type: cell-based
Conditions: 5 μM, 1-30 min

Structure (SMILES) | fluorescence intensity after continuous laser irradiation (laser source 561 nm) | fluorescence intensity after continuous laser irradiation (laser source 405 nm)
CCN(CC)c1ccc2c(C)c(-c3ccc(C(N)=O)cc3)c(=O)oc2c1 [dye 2a] | only a slight decrease in fluorescence intensity | 
CCN(CC)c1ccc2nc3c4ccc(-c5ccc(C(N)=O)cc5)cc4c(=O)cc-3oc2c1 [dye 3a] |  | only a slight decrease in fluorescence intensity
